From patent US9320773B2, “Compounds and therapeutic applications related to inhibition of dendritic cell immunoreceptor (DCIR) activity and signaling events” (priority 2010, dated 2016)
For at least one compound, name, drawing or mass did not settle the structure.

Tested on: HIV-1 NL4-3 in Raji-CD4-DCIR cells
Assay: HIV-1 infection assay in Raji-CD4-DCIR cells, real-time PCR of spliced Tat mRNA
Format: cell-based
Conditions: Table 3, pharmacological inhibitors; symbols not defined
Experimental: FIG. 6A: Raji-CD4 and Raji-CD4-DCIR were either left untreated or preincubated with tyrosine phosphatase inhibitor SSG (100 μg/ml); Syk inhibitor piceatannol (10 μM); Src inhibitor PP2 (10 μM); classical PKC inhibitor Gö6976 (1 μM); MAPK p38 inhibitor SB203580 (2 μM), MAP kinase inhibitor PD98059 ([…]) for 10 min. FIG. 6B: Raji-CD4 and Raji-CD4-DCIR were treated with Oligofectamine and then either left untreated or exposed to a sense or an antisense oligonucleotide against different signalling proteins during 5 hours. Next, cells were exposed to NL4-3 for 24 hours. Virus infection was determined by real-time PCR of spliced Tat mRNA. Data shown correspond to the means±SD of triplicate samples from three independent experiments. The asterisk denotes statistically significant data (*, P<0.05; ***, P<0.001).
For the infection assay performed before measuring Tat mRNA, Raji-CD4 and Raji-CD4-DCIR cells were treated with the indicated inhibitor or transfected with the indicated oligonucleotide (as described below). Cells were then pulsed with NL4-3 during 24 hours. […] The expression level of Tat mRNA was measured by real-time PCR, as described below.
Expression levels of TAT splice transcripts were determined using a Rotor-Gene™ system (Corbett Life Science). […] After elution, the amount and quality of RNA was assessed by measuring the absorbance at 260 and 280 nm. […]

With `COC[C@H]1OC(=O)c2coc3c2[C@@]1(C)C1=C(C3=O)[C@@H]2CCC(=O)[C@@]2(C)C[C@H]1OC(C)=O` [Wortmanin, Wortmannin] the Infection was “Ø”.
